Results on three molecules are retold here after article PMC4749569, “Atomic structure of the 26S proteasome lid reveals the mechanism of deubiquitinase inhibition” (eLife, 2016).

Amino acid sequences for entries named in this document (tags omitted).
UniProt P43588: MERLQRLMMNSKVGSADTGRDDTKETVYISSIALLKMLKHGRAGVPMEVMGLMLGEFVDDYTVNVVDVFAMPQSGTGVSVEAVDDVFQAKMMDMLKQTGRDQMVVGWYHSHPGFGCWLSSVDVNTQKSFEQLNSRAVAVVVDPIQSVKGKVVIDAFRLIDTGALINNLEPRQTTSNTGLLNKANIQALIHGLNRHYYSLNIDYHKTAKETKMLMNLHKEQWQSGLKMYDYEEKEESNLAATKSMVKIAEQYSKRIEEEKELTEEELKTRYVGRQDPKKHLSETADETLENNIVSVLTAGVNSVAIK

These are yes or no findings as the source states them, for the method shown. Some entries that bind do so weakly or less than the wild type.

Experiment [1] deals with T1, Rpn8 (S. cerevisiae (yeast)) (UniProt Q08723).
T1 sequence: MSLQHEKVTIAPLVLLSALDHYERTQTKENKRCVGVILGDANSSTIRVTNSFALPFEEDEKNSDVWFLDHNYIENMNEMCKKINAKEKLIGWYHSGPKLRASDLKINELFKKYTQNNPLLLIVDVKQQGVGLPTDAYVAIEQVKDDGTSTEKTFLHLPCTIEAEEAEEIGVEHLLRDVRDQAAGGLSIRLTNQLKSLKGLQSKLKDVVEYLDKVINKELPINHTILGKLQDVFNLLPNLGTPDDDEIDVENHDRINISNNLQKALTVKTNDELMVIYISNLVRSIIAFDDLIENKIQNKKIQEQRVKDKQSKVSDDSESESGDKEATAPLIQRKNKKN
Put plainly: cryo-EM structure; isolated recombinant yeast lid (nine subunits co-expressed in E. coli, purified as one complex), ~5 uM in FLAG buffer (50 mM HEPES, pH7.6, 100 mM NaCl, 100 mM KCl) with 1.5 mM TCEP and 0.05% NP-40; 3.5 Å; both purified.

Experiment [2] has as its target T2, Rpn9 (S. cerevisiae (yeast)) (UniProt Q04062).
T2 sequence: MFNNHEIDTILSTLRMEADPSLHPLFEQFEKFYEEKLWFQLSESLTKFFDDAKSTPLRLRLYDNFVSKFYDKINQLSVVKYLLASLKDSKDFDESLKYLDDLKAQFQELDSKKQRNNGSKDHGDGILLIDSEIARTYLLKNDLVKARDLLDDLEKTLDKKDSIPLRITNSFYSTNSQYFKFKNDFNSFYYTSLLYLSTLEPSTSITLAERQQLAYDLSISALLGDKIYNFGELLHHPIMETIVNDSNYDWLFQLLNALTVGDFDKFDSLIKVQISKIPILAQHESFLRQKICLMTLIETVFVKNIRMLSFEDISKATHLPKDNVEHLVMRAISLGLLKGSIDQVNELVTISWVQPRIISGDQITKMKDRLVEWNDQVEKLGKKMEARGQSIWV
As to the kind of experiment: negative-stain EM; purified wild-type and mutant lid, ~50 nM in FLAG buffer (50 mM HEPES, pH7.6, 100 mM NaCl, 100 mM KCl), 2% uranyl formate; 2D class averages and 3D reconstructions at 19.6-27.3 Å; both purified.

In experiment [3] the target is T2, Rpn9 (S. cerevisiae (yeast)). Put plainly: cryo-EM structure; isolated recombinant yeast lid (nine subunits co-expressed in E. coli, purified as one complex), ~5 uM in FLAG buffer (50 mM HEPES, pH7.6, 100 mM NaCl, 100 mM KCl) with 1.5 mM TCEP and 0.05% NP-40; 3.5 Å; both purified.
Experiment [4] has as its target Rpn11 (S. cerevisiae (yeast)) (UniProt P43588). Put plainly: negative-stain EM; purified wild-type and mutant lid, ~50 nM in FLAG buffer (50 mM HEPES, pH7.6, 100 mM NaCl, 100 mM KCl), 2% uranyl formate; 2D class averages and 3D reconstructions at 19.6-27.3 Å; both purified.
For experiment [5] the target is unchanged. As to the kind of experiment: cryo-EM structure; isolated recombinant yeast lid (nine subunits co-expressed in E. coli, purified as one complex), ~5 uM in FLAG buffer (50 mM HEPES, pH7.6, 100 mM NaCl, 100 mM KCl) with 1.5 mM TCEP and 0.05% NP-40; 3.5 Å; both purified.

In the case of “Rpn11 (from UniProt P43588 1-306) (enzyme)”, the binding result in experiment [1] is “binds”.

B1: Rpn8 (protein, UniProt Q08723 1-338)
chain: T1 sequence
Regarding B1, the binding entry in experiment [2] and in experiment [3] was “binds” each time.

B2: Rpn5 (natural protein, S. cerevisiae (yeast))
chain: MSRDAPIKADKDYSQILKEEFPKIDSLAQNDCNSALDQLLVLEKKTRQASDLASSKEVLAKIVDLLASRNKWDDLNEQLTLLSKKHGQLKLSIQYMIQKVMEYLKSSKSLDLNTRISVIETIRVVTENKIFVEVERARVTKDLVEIKKEEGKIDEAADILCELQVETYGSMEMSEKIQFILEQMELSILKGDYSQATVLSRKILKKTFKNPKYESLKLEYYNLLVKISLHKREYLEVAQYLQEIYQTDAIKSDEAKWKPVLSHIVYFLVLSPYGNLQNDLIHKIQNDNNLKKLESQESLVKLFTTNELMRWPIVQKTYEPVLNEDDLAFGGEANKHHWEDLQKRVIEHNLRVISEYYSRITLLRLNELLDLTESQTETYISDLVNQGIIYAKVNRPAKIVNFEKPKNSSQLLNEWSHNVDELLEHIETIGHLITKEEIMHGLQAK
As to B2, the binding result in experiment [4] and in experiment [5] was “binds” throughout.
